Assay results as given in PMC8653791, “TBX2 controls a proproliferative gene expression program in melanoma”.
No constants are given. Whether binding was seen depends on the method and setting. Some entries that bind do so weakly or less than the wild type.

The chains behind the UniProt entries cited, without tags or fusion partners.
UniProt Q9BSM1: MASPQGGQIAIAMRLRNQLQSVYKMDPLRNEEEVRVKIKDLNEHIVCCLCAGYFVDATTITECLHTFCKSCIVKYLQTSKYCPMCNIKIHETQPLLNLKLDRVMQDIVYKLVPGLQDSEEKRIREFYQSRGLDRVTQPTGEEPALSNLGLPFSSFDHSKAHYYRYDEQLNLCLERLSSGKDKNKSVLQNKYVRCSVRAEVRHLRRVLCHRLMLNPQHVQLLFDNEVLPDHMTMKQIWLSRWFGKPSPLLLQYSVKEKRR

Legend:
Assay in all cases: nuclear tethering assay (LacR bait on a LacO array, GFP prey); U2OS-LacO cells co-transfected with mCherry-LacR bait and GFP-tagged prey plasmids; GFP at the mCherry focus against the rest of the nucleus (dot/nucleus ratio); cells fixed with 4% PFA before imaging
mCherry-LacR-Tbx2 = target: T1, mCherry-LacR-Tbx2 (UniProt Q60707)
T1 sequence: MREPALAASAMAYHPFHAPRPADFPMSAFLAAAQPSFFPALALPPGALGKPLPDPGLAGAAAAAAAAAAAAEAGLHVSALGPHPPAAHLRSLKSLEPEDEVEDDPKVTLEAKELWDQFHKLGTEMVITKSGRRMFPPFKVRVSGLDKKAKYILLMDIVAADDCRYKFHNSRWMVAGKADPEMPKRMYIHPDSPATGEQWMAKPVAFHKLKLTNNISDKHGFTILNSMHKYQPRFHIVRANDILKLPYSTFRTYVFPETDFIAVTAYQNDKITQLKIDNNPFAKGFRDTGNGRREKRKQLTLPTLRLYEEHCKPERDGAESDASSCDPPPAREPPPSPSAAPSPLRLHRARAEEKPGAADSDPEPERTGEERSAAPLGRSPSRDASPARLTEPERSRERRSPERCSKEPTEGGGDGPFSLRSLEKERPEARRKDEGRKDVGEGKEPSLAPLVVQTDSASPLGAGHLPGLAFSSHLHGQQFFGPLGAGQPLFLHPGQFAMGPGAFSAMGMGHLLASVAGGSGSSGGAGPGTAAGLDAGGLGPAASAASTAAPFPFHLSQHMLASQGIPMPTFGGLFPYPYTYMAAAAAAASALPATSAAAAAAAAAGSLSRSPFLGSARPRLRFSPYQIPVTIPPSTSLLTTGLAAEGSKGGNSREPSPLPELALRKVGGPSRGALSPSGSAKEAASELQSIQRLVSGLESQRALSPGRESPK

[1] = target: T2, mCherry-LacR-Tbx2 C-terminal region (UniProt Q60707)
T2 sequence: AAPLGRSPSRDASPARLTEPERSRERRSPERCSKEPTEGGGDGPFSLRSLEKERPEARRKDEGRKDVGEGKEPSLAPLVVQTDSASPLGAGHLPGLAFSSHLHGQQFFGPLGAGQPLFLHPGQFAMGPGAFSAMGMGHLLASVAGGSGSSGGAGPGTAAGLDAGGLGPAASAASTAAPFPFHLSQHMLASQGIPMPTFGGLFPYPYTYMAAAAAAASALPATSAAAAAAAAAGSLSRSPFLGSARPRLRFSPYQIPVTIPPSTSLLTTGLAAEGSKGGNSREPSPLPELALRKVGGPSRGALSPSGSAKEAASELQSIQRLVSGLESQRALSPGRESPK

[2] = target: T3, mCherry-LacR-Tbx2 N-terminal domain containing the T-box (UniProt Q60707)
T3 sequence: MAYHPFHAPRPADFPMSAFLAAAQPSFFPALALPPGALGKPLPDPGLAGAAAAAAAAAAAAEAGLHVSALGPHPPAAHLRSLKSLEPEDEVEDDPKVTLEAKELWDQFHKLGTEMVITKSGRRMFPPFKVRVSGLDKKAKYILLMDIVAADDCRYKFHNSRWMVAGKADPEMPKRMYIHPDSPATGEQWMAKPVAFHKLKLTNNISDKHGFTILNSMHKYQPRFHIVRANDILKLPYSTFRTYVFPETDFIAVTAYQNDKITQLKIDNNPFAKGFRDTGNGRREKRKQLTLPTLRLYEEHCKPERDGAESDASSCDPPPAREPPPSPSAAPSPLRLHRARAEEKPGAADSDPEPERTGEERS

Measured: binding

EGFP-PCGF1 (from UniProt Q9BSM1 1-259)
binds: all assays above
